Reference: patent US5578639A, “PLA2 inhibitors and their use for inhibition of intestinal cholesterol absorption” (Warner-Lambert Company, priority 1995, dated 1996)
The name of at least one read-out is uncertain.

Tested on: Caco-2 cells
Assay: Caco-2 phospholipase A2-dependent cholesterol absorption, time course
Type: cell-based, human
Details: 12 hours; micelles containing lyso-PC or PC

SMILES: CCCCCCCCCCCCCCCC(=O)OCC(O)COP(=O)([O-])OCC[N+](C)(C)C (stereo not shown) [lysophosphatidylcholine, 1-palmitoyl lysophosphatidylcholine, reference compound]
- cell [14C]cholesteryl ester relative to incubations without micellar phospholipid: 152%
